Experimental findings from article PMC12413952 are described below.

Sequences of proteins named here, by UniProt entry; tags and fusion partners are left off.
UniProt P06211: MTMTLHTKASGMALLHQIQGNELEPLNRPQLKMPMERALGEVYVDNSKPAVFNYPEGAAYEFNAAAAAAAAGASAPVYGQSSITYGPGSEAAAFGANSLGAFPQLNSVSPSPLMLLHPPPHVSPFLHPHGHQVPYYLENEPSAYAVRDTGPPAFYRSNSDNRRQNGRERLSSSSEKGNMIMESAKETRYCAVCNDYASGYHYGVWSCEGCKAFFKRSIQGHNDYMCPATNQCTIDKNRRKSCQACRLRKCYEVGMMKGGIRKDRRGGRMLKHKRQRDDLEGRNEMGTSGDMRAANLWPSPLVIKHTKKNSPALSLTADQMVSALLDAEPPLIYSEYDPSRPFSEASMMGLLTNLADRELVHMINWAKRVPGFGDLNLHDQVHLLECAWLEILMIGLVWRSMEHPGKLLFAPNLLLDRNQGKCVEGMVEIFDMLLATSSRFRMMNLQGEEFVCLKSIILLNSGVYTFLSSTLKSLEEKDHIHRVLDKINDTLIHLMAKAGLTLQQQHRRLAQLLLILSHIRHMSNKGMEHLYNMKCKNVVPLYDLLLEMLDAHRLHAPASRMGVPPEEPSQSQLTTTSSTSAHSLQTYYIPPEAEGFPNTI

No constants are given. Whether binding was seen depends on the method and setting. Binding seen in cells or lysates may run through a third protein. Some entries that bind do so weakly or less than the wild type.

The test deals with Estrogen receptor 1 (ESR1) (rat (endogenous in rat liver tissue)) (UniProt P06211). As to the kind of experiment: co-IP; proteins of rat liver tissue incubated with anti-ESR1 antibody or isotype control IgG; immunocomplexes blotted for TAK1.

B1: TAK1 (protein, UniProt P0C8E4 1-606)
chain: MSTASAASSSSSSSASEMIEAPSQVLNFEEIDYKEIEVEEVVGRGAFGVVCKAKWRAKDVAIKQIESESERKAFIVELRQLSRVNHPNIVKLYGACLNPVCLVMEYAEGGSLYNVLHGAEPLPYYTAAHAMSWCLQCSQGVAYLHSMQPKALIHRDLKPPNLLLVAGGTVLKICDFGTACDIQTHMTNNKGSAAWMAPEVFEGSNYSEKCDVFSWGIILWEVITRRKPFDEIGGPAFRIMWAVHNGTRPPLIKNLPKPIESLMTRCWSKDPSQRPSMEEIVKIMTHLMRYFPGADEPLQYPCQYSDEGQSNSATSTGSFMDIASTNTSNKSDTNMEQVPATNDTIKRLESKLLKNQAKQQSDSGRLSLGASRGSSVESLPPTSEGKRMSADMSEIEARIVATTAYTKPKRGHRKTASFGNILDVPEIVISGNGQPRRRSIQDLTVTGTEPGQVSSRSSSPSVRMITTSGPTSEKPARSLPWTPDDSTDTNGSDNSIPMAYLTLDHQLQPLAPCPNSKESMAVFEQHCKMAQEYMKVQTEIALLLQRKQELVAELDQDEKDQQNTSRLVQEHKKLLDENKSLSTYYQQCKKQLEVIRSQQQKRQGTS
Consider B1, for which the binding entry was “binds”.
